Measurements as given in US11707440B2 (priority 2017, dated 2023).

Settings: 25 μL sample volume
Description: This example provides an LC-MS/MS method for the determination of ketamine and norketamine in sodium heparin human plasma using ketamine-d4 and norketamine-d4 as the respective internal standards (IS).

Compound | Lower limit of quantitation (LLOQ) [ng/mL]
CNC1(c2ccccc2Cl)CCCCC1=O (racemic) [ketamine, reference compound] | 0.500
NC1(c2ccccc2Cl)CCCCC1=O (centres unmarked) [Norketamine] | 0.500
